Laboratory results reported in the supplement of paper PMC10849652.
This is one part of the list.

Chains of the proteins cited; added tags and fusions are not shown. Lines headed by an entry give the natural chain unless they say otherwise; changes in a name come on top.
UniProt Q99986: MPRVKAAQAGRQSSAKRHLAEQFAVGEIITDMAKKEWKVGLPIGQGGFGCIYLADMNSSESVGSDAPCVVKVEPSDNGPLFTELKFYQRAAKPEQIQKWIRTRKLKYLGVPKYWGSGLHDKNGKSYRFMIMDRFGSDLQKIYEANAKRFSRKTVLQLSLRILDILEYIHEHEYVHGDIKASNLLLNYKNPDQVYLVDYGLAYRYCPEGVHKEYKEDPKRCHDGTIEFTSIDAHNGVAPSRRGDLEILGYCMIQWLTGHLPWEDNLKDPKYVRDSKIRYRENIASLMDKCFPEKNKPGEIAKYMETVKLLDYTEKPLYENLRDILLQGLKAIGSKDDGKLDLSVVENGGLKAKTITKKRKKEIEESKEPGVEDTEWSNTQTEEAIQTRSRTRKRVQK
UniProt Q96S55: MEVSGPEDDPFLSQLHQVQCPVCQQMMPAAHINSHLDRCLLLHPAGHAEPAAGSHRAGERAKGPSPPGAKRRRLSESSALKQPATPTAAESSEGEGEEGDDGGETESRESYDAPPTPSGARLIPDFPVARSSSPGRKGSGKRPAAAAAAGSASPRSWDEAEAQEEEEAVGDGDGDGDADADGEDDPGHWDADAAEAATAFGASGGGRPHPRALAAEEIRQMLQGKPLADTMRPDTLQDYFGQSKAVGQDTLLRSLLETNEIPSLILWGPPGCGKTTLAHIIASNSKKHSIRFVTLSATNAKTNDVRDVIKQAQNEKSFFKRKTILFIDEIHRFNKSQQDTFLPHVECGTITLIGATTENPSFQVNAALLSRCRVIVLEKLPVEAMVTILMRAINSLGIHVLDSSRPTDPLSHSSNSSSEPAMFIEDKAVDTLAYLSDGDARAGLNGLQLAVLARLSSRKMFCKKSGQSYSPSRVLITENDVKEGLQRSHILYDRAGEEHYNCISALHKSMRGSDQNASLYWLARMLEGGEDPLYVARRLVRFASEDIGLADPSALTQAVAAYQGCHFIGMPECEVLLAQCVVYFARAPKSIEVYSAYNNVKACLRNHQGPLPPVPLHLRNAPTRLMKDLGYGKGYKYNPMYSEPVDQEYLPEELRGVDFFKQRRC
UniProt Q92558: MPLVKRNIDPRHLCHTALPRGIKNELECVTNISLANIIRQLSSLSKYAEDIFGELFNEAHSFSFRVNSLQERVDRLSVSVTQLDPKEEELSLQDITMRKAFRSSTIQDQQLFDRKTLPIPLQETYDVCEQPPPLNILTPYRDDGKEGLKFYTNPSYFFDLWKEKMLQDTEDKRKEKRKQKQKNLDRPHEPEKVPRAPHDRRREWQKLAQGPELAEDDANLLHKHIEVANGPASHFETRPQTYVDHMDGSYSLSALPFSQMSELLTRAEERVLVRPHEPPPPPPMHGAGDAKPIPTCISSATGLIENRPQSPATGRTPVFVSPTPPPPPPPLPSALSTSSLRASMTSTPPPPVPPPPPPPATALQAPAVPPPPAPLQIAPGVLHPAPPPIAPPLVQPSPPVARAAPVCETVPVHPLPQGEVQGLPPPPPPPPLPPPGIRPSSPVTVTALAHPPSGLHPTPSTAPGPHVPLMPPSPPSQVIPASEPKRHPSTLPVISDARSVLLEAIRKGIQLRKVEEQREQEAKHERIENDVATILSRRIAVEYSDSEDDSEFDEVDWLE
UniProt Q9H1Z4: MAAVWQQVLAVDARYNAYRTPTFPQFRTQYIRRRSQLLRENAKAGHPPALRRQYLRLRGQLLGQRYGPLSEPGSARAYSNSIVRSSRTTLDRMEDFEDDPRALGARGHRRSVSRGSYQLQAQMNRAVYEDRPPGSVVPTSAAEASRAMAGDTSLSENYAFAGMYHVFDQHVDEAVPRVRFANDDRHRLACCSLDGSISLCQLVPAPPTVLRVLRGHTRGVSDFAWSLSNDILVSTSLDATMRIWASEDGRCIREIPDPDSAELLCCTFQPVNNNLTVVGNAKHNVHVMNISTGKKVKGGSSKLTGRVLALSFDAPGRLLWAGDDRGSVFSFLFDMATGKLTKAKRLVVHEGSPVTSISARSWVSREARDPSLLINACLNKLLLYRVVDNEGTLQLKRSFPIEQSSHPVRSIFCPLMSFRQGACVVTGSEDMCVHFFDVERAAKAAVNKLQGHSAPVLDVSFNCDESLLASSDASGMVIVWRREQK
UniProt Q8N3P4: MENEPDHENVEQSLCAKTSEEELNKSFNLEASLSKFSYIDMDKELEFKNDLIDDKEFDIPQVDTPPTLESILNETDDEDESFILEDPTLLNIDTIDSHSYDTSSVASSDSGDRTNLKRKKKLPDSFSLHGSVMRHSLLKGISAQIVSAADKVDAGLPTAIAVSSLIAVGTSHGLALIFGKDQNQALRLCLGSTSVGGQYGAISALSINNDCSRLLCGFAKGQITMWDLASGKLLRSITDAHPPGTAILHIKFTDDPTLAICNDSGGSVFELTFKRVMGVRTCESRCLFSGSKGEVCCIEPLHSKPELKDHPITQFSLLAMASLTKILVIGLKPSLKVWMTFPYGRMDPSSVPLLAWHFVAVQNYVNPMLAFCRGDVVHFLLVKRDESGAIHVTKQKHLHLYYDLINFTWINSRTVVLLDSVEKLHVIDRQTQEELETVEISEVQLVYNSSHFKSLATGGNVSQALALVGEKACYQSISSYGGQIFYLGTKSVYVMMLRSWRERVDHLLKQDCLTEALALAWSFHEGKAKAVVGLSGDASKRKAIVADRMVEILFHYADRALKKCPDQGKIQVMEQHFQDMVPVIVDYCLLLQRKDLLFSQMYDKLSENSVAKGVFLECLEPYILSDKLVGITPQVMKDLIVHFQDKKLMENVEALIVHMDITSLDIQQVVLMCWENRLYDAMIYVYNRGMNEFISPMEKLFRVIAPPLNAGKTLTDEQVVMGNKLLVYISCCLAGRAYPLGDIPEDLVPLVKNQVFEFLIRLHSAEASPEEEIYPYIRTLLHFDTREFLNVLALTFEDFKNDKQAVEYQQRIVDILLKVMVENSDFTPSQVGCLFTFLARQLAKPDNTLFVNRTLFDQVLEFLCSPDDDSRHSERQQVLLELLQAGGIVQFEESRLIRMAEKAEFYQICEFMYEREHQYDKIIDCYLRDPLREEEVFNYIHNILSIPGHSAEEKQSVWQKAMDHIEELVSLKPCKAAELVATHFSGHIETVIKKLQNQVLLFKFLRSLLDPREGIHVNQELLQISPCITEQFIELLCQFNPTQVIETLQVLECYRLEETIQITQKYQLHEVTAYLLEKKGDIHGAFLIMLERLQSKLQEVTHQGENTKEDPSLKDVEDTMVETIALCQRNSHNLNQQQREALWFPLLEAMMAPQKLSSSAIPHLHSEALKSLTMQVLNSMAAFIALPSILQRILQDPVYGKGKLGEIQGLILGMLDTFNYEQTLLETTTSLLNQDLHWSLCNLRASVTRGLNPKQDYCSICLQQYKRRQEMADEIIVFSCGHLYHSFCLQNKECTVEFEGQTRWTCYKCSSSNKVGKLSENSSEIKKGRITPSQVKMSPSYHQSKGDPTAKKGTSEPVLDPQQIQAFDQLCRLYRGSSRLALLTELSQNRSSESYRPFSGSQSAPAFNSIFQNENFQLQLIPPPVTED
UniProt Q9H4A3: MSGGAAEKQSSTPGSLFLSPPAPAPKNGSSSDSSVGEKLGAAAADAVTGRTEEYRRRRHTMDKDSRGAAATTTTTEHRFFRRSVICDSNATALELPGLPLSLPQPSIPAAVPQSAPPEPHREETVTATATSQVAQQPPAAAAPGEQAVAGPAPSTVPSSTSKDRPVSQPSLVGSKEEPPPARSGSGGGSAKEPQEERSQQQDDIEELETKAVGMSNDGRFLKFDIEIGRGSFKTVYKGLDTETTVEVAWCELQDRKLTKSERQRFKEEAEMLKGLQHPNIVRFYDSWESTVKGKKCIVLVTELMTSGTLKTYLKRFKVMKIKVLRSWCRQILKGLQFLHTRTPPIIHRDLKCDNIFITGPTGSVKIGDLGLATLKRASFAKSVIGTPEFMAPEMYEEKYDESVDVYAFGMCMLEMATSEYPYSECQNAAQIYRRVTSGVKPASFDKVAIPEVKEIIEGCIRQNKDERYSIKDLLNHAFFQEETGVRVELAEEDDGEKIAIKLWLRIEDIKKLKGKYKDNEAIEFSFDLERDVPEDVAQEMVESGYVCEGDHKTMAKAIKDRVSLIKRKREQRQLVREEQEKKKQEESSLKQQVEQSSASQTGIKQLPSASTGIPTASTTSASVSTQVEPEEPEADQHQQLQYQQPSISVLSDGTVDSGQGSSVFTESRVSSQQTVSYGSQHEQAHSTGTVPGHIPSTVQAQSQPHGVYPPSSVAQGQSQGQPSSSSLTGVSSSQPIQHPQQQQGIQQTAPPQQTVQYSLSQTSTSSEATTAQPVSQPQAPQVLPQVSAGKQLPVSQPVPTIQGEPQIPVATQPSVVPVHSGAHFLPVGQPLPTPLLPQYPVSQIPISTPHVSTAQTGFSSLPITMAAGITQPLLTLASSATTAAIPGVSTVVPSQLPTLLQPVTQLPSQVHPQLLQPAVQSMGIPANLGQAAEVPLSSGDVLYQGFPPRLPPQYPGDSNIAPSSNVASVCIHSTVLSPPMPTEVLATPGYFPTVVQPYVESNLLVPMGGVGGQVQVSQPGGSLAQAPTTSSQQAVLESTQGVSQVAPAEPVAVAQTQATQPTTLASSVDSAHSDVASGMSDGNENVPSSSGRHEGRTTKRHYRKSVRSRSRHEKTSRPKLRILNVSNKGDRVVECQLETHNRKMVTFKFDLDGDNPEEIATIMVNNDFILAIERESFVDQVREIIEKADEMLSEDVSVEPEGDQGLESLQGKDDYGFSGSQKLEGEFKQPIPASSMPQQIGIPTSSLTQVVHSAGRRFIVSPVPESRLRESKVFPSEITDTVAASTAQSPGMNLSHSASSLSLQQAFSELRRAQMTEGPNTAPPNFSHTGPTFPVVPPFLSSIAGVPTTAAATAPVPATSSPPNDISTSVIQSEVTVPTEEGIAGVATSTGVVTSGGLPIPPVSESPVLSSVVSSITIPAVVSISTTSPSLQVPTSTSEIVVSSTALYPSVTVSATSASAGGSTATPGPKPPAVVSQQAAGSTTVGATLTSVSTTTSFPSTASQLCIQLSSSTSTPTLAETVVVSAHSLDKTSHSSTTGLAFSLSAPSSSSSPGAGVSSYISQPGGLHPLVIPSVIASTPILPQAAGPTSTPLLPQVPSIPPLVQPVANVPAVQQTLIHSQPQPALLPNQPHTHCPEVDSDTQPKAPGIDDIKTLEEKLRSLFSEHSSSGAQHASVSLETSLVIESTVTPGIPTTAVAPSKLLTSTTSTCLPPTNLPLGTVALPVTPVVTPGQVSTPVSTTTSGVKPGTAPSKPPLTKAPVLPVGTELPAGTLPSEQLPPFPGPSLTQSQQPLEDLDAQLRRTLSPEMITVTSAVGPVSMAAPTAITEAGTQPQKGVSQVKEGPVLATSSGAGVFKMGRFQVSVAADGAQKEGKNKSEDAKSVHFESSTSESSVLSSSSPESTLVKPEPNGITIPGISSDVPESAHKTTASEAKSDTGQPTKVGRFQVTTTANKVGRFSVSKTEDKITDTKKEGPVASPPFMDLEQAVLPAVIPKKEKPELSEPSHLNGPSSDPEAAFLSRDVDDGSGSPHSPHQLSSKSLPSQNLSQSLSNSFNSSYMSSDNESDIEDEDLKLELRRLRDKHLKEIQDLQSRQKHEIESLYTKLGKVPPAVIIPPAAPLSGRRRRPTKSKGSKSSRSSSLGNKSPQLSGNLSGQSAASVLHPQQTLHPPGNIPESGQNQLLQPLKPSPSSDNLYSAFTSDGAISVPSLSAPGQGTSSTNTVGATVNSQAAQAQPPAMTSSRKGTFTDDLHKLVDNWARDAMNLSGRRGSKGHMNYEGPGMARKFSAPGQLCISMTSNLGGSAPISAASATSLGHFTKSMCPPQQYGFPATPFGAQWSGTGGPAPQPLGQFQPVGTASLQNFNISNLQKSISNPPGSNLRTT
UniProt Q9NRW7: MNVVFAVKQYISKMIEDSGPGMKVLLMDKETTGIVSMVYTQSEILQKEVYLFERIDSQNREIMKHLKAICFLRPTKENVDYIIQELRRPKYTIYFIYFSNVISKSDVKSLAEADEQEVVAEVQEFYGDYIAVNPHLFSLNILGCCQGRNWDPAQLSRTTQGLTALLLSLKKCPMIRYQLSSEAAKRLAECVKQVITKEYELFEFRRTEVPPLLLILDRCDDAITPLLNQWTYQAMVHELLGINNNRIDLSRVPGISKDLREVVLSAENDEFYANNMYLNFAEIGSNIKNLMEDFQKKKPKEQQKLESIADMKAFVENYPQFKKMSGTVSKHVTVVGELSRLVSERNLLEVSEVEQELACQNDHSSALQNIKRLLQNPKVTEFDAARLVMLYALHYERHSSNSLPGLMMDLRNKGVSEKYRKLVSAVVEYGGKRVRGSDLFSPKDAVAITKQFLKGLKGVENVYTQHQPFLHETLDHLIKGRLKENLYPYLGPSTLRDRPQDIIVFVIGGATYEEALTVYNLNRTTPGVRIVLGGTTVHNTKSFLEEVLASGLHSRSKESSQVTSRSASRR
UniProt Q3ZAQ7: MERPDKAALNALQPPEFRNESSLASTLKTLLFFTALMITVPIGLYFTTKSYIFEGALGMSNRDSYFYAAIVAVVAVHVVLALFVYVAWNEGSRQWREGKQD

Compound: C1=CC=C(C=C1)[C@H](COC2=CC3=C(C=C2)NC(=O)N3)NC(=O)C4=CC=CN(C4=O)CC5=CC(=C(C=C5)F)F
Assay: log2 fold change, soluble protein after heating vs DMSO (PISA); higher = thermal stabilisation; K562 lysate, 10 uM; active = over 0.2 and 3.5 SD of the protein, either way, in both replicates (recomputed)
Method in brief: (§1)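 K562 pellets were dounce-homogenised in PBS pH 7.4 with 1 mM MgCl2, and the crude extract at 1 mg/mL protein was treated with 10 μM compound for 30 min. Aliquots were heated for 3 min across 48°C-58°C, pooled, and brought to 0.5% NP-40 at 4°C; soluble protein was the supernatant after 21,000xg for 90 min. Soluble protein was quantified by TMTpro 16plex LC-MS/MS with channel sums equalised, and reported as log2 fold change in thermal stability against DMSO controls, with values from duplicates.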

Target	log2 fold change
WASHC4 (UniProt Q2M389)	inactive: 0.013
VRK1 (UniProt Q99986)	inactive: -0.002
WDR26, A0A499FIZ0	inactive: 0.009
WDR55 (UniProt Q9H6Y2)	inactive: -0.167
WDR3 (UniProt Q9UNX4)	inactive: 0.039
WIPF1 isoform 3 (UniProt O43516)	inactive: -0.008
WDR20 isoform 7 (UniProt Q8TBZ3)	inactive: -0.037
WDR45B (UniProt Q5MNZ6)	inactive: 0.014
WRNIP1 (UniProt Q96S55)	inactive: -0.051
XPC (UniProt Q01831)	inactive: 0.035
WASHC5 (UniProt Q12768)	inactive: -0.01
VPS25 (UniProt Q9BRG1)	inactive: -0.046
WASF1 (UniProt Q92558)	inactive: -0.004
WDR6 (UniProt Q9NNW5)	inactive: -0.001
WDCP (UniProt Q9H6R7)	inactive: 0.023

Compound: CC1=C(SC2=C1C(=N[C@H](C3=NN=C(N32)C)CC(=O)N)C4=CC=C(C=C4)Cl)C
Assay: as above
Method in brief: as §1

Target	log2 fold change
VPS28 (UniProt Q9UK41)	inactive: -0.04
VPS35 (UniProt Q96QK1)	inactive: -0.011
VPS13A (UniProt Q96RL7)	inactive: 0.049
WIPF2 (UniProt Q8TF74)	inactive: -0.016
WDR24 (UniProt Q96S15)	active: -0.475
VPS26B (UniProt Q4G0F5)	inactive: -0.004
WDR13 (UniProt Q9H1Z4)	inactive: 0.033
VPS8 (UniProt Q8N3P4)	inactive: 0.009
WDTC1 (UniProt Q8N5D0)	inactive: 0.022
WNK1 isoform 7 (UniProt Q9H4A3)	inactive: 0.004
WASH2P (UniProt Q6VEQ5)	inactive: -0.002
WDR70 (UniProt Q9NW82)	inactive: 0
WDR47 (UniProt O94967)	inactive: 0.065
VPS45 (UniProt Q9NRW7)	inactive: 0.03
WDR7 (UniProt Q9Y4E6)	inactive: 0.011
VKORC1L1, A0A3B3ISV4	inactive: -0.053
WDR75 (UniProt Q8IWA0)	inactive: 0.171
WARS (UniProt P23381)	inactive: -0.023
VPS51 (UniProt Q9UID3)	inactive: 0.034
VIRMA (UniProt Q69YN4)	inactive: 0.02

Target	log2 fold change
VRK3 (UniProt Q8IV63)	inactive: 0.057
VPS4B (UniProt O75351)	inactive: -0.039
VMA21 (UniProt Q3ZAQ7)	inactive: 0.003
WDR5 (UniProt P61964)	inactive: 0.01
WASHC4 (UniProt Q2M389)	inactive: 0.002
VRK1 (UniProt Q99986)	inactive: 0.017
WDR26, A0A499FIZ0	inactive: -0.019
WDR55 (UniProt Q9H6Y2)	inactive: 0.025
WDR3 (UniProt Q9UNX4)	inactive: -0.026
WIPF1 isoform 3 (UniProt O43516)	inactive: -0.002
WDR20 isoform 7 (UniProt Q8TBZ3)	inactive: -0.002
WDR45B (UniProt Q5MNZ6)	inactive: -0.025
WRNIP1 (UniProt Q96S55)	inactive: -0.033
XPC (UniProt Q01831)	inactive: 0.006
WASHC5 (UniProt Q12768)	inactive: 0.006
VPS25 (UniProt Q9BRG1)	inactive: -0.002
WASF1 (UniProt Q92558)	inactive: 0.016
WDR6 (UniProt Q9NNW5)	inactive: 0.02
WDCP (UniProt Q9H6R7)	inactive: 0.068
